The record followed here is article PMC5922973, “Topoisomerase VI senses and exploits both DNA crossings and bends to facilitate strand passage” (eLife, 2018).

Chains of the proteins cited; added tags and fusions are not shown. Chains listed by the source or under a name are the forms on record and can include a tag or linker.
topo VI Stalk/WKxY-AAA K399A,K401A,R457A (Methanosarcina mazei), one chain, as listed by the source K399A K401A R457A, chain 2 of 2: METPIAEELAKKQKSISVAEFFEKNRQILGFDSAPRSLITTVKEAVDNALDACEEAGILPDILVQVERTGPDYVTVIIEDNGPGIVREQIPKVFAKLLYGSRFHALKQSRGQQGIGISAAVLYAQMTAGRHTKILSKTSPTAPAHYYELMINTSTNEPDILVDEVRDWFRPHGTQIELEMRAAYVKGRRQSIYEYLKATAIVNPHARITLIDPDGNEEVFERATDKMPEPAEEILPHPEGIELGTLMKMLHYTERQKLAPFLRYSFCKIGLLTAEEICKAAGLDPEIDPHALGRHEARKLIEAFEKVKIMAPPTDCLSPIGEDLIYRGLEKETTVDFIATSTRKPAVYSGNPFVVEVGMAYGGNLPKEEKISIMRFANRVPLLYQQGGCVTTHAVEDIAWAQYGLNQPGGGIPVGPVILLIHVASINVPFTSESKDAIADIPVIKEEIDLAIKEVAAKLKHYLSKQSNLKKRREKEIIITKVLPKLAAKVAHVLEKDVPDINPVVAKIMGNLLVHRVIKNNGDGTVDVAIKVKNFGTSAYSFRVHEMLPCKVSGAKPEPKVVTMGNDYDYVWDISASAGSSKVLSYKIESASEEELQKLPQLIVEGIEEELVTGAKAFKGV
topo VI H2TH-AAA R263A,K268A,K308A (Methanosarcina mazei), one chain, as listed by the source R263A K268A K308A, chain 2 of 2: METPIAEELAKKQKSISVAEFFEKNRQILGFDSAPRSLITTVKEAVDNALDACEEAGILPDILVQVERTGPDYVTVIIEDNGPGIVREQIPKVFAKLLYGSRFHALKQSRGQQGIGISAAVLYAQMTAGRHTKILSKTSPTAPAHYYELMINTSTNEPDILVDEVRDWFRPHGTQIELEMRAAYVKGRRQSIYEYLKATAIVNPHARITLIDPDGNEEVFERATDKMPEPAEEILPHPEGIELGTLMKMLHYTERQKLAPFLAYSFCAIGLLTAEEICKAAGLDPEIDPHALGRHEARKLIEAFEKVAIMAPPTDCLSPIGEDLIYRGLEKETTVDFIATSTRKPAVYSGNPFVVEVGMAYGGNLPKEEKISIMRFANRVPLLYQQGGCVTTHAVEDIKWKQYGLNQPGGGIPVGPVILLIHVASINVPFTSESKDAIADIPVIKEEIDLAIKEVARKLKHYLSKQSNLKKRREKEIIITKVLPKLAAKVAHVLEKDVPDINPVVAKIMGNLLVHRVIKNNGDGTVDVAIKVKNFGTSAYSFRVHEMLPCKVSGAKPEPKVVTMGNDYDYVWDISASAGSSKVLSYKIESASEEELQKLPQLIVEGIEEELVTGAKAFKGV

The subject of data set [1] is topo VI Stalk/WKxY-AAA K399A,K401A,R457A (Methanosarcina mazei). The experiment in a line: fluorescence anisotropy. As to conditions: FA: 20 nM probe, 50 mM K-glutamate, 20 mM HEPES-KOH pH 7.5, 10 mM MgCl2, 5% glycerol, 1 mM TCEP, 0.1 mg/mL BSA, incubated on ice, read at ambient temperature, recombinant protein, protein details: N-terminal His6-TEV on Top6B, removed, label: 5'-FAM strand 1. In general terms: Fluorescence polarisation rises when a labelled molecule tumbles more slowly, as on binding a larger partner.

Data set [2] relates to topo VI Stalk/WKxY-EEE K399E,K401E,R457E (Methanosarcina mazei). Nature of the data set: fluorescence anisotropy. The note with it: FA: 20 nM probe, 50 mM K-glutamate, 20 mM HEPES-KOH pH 7.5, 10 mM MgCl2, 5% glycerol, 1 mM TCEP, 0.1 mg/mL BSA, incubated on ice, read at ambient temperature, recombinant protein, protein details: N-terminal His6-TEV on Top6B, removed, label: 5'-FAM strand 1.

The test system of data set [3] is topo VI H2TH-EEE R263E,K268E,K308E (Methanosarcina mazei). The experiment in a line: fluorescence anisotropy. The note with it: FA: 20 nM probe, 50 mM K-glutamate, 20 mM HEPES-KOH pH 7.5, 10 mM MgCl2, 5% glycerol, 1 mM TCEP, 0.1 mg/mL BSA, incubated on ice, read at ambient temperature, recombinant protein, protein details: N-terminal His6-TEV on Top6B, removed, label: 5'-FAM strand 1.

Data set [4] concerns topo VI Stalk/WKxY-AAA K399A,K401A,R457A (Methanosarcina mazei). The experiment in a line: FRET DNA bending. The note with it: minor FRET change, slow increase with AMPPNP; recombinant protein; protein details: N-terminal His6-TEV on Top6B, removed; label: 5'-Cy5 strand 1, 5'-Cy5.5 strand 2.
Data set [5] has as its system topo VI H2TH-AAA R263A,K268A,K308A (Methanosarcina mazei). The experiment in a line: FRET DNA bending. As to conditions: minor FRET change, no AMPPNP-dependent bending; recombinant protein; protein details: N-terminal His6-TEV on Top6B, removed; label: 5'-Cy5 strand 1, 5'-Cy5.5 strand 2.
The test system of data set [6] is topo VI Stalk/WKxY-EEE K399E,K401E,R457E (Methanosarcina mazei). The experiment in a line: FRET DNA bending. The note with it: minor FRET change, slow increase with AMPPNP; recombinant protein; protein details: N-terminal His6-TEV on Top6B, removed; label: 5'-Cy5 strand 1, 5'-Cy5.5 strand 2.
Data set [7] concerns topo VI H2TH-EEE R263E,K268E,K308E (Methanosarcina mazei). The experiment in a line: FRET DNA bending. As to conditions: minor FRET change, no AMPPNP-dependent bending; recombinant protein; protein details: N-terminal His6-TEV on Top6B, removed; label: 5'-Cy5 strand 1, 5'-Cy5.5 strand 2.

For at least one entry, the source does not settle the construct or the ends of the probe. For some assays here: The comparison behind a weaker result is the experiment's own reference, which may not be listed here. For some assays here: At least one verdict was read from the data and is not stated in words by the source.

As to “CTATTGAAAAAGGAAGAGTATGAGTATTCAACATTTCCGC (double strand) [40 bp duplex]”, the binding result in data set [1] and in data set [2] was “binds more weakly” throughout.
On to “CCAAATGCTTCAATAATATTGAAAAAGGAAGAGTATGAGTATTCAACATTTCCGTGTCGCCCTTATTCCC (double strand) [70 bp duplex]”, for which the binding result in data set [1] and in data set [2] was “binds more weakly” each time. The Kd in data set [3] (Hill h 1.7) turned out to be 103 nM.
In the case of “CCAAATGCTTCAATAATATTGAAAAAGGAAGAGTATGAGTATTCAACATTTCCGTGTCGCCCTTATTCCC (double strand) [70 bp duplex Cy5/Cy5.5]”, the binding result in data set [4], in data set [5], in data set [6] and in data set [7] was “binds more weakly” in each case.
Turning to “CAAAAAGGAAGAGTATGAGTATTCAACATC (double strand) [30 bp duplex]”, the binding result in data set [1] (Kd not determined) and in data set [2] (Kd not determined) was “binds more weakly” in each case.
Turning to “CGCTTCAATAATATTGAAAAAGGAAGAGTATGAGTATTCAACATTTCCGTGTCGCCCTTC (double strand) [60 bp duplex]”, the binding result in data set [1] and in data set [2] was “binds more weakly” each time. The Kd in data set [3] (Hill h 1.8) amounted to 109 nM.

As a reminder, the Kd is a measure of binding affinity in units of concentration.
